Reference: PubChem BioAssay AID2685 (National Center for Advancing Translational Sciences (NCATS), 2010)
The list shows a part of the results. The main result of the screen is listed elsewhere. These columns were measured beside it and carry no call. Most of these compounds were active or inconclusive in the main read-out, so they are no random draw. Words in brackets tell the shape of the fitted curve; partial curves, single points and poor fits give uncertain potencies.

Assay: qHTS Assay for Lipid Storage Modulators in Drosophila S3 Cells;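 as to cell number change: cells counted by Cell Tracker Red CMTPX staining in the red channel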
Settings: BODIPY lipid droplet fluorescence, 18-24 h; for cell number change: measured here: cell count max response, cells fed with added oleic acid
Summary of the method: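 Drosophila S3 cells loaded with oleic acid (400 uM, as added) and compounds at several concentrations; lipid droplets imaged by 488-nm laser-scanning cytometry, 500–530 nm intensity and object ratio to cell channel. Percent activity normalized to 20 uM Triacsin C.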

[1] = measured here: cell number channel AC50, cells fed with added oleic acid
[2] = measured here: lipid fluorescence (Fed channel) AC50, cells fed with added oleic acid

| SMILES | cell number change | AC50 [1] | AC50 [2] |
| --- | --- | --- | --- |
| COc1ccc(C(=O)Oc2ccc3c(c2)OCO3)cc1OC | -37.1% | 29.1 µM [falling, partial curve, poor fit] | – |
| COc1cc(C(=O)NCCCN(C)C)ccc1OCC(=O)Nc1cccc(C(F)(F)F)c1 | 15.8% | – | 0.00517 µM [falling, full curve, poor fit] |
| COc1ccc(NC(=O)c2ccc(F)cc2)cc1S(=O)(=O)Nc1cc(C)ccc1Br | -2.23% | 0.103 µM [rising, full curve, poor fit] | – |
| CN(c1ccc(C(=O)N/N=C/c2cccc([N+](=O)[O-])c2)cc1)S(=O)(=O)c1ccccc1 | -18.4% | 6.51 µM [falling, partial curve, poor fit] | – |
| Cc1c(NC(=O)OCCSc2nc(N(C)C)nc(N(C)C)n2)sc(=S)n1C | 21.5% | 0.259 µM [rising, full curve, poor fit] | 0.259 µM [rising, partial curve, poor fit] |
| Cc1nn(S(=O)(=O)c2cccs2)c(C)c1Sc1ccc([N+](=O)[O-])cc1 | -32% | 8.2 µM [falling, partial curve, poor fit] | 16.4 µM [falling, partial curve, poor fit] |
| Cn1nccc1C(=O)Nc1ccc(OC(=O)c2ccnn2C)cc1 | 16.2% | 1.03 µM [falling, full curve, poor fit] | 1.3 µM [falling, full curve] |
| COCCNC(=O)/C(C#N)=C/c1ccc(OC(=O)c2cccs2)c(OC)c1 | -47.5% | 32.6 µM [falling, single point] | 32.6 µM [falling, single point] |
| Cc1ccc(NC(=O)CCNS(=O)(=O)c2ccc3[nH]c(=O)oc3c2)cc1N(C)C | -3.28% | – | – |
| CN(C)CCCN(C(=O)c1ccco1)c1nc2c(F)cccc2s1 | – | 6.51 µM [rising, partial curve, poor fit] | 6.51 µM [rising, single point] |
| CCN(CC)CCn1c(NCc2ccc(OC)cc2)nc2ccccc21 | -8.81% | – | – |
| O=[N+]([O-])c1ccccc1S(=O)(=O)N1CCCCC1 | – | – | 29.1 µM [falling, single point] |
| CCCCSCCCNC(=O)c1ccc2c(c1)N(CC)C(=O)c1ccccc1S2=O (configuration not stated) | -24.3% | – | 6.51 µM [falling, single point] |
| Cc1ccc(NC(=S)Nc2cccc3ccccc23)cc1F | -22.8% | – | 29.1 µM [rising, single point] |
| Cn1c(SCC(=O)NCCc2ccccc2)nc2c([nH]c3ccccc32)c1=O | 17% | 0.103 µM [rising, partial curve, poor fit] | 0.0651 µM [rising, full curve, poor fit] |

Three entries from above, arranged by length of the SMILES, ascending:

| SMILES | cell number change | AC50 [1] | AC50 [2] |
| --- | --- | --- | --- |
| O=[N+]([O-])c1ccccc1S(=O)(=O)N1CCCCC1 | – | – | 29.1 µM [falling, single point] |
| Cc1c(NC(=O)OCCSc2nc(N(C)C)nc(N(C)C)n2)sc(=S)n1C | 21.5% | 0.259 µM [rising, full curve, poor fit] | 0.259 µM [rising, partial curve, poor fit] |
| COc1ccc(NC(=O)c2ccc(F)cc2)cc1S(=O)(=O)Nc1cc(C)ccc1Br | -2.23% | 0.103 µM [rising, full curve, poor fit] | – |
